# From the supplement of paper PMC8728848
# The list shows a part of the results.
# Legend:
# Assay in all cases: glycan array binding signal (z-score within array); higher = stronger binding
# Details in all cases: glycan notation: IUPAC condensed, linker removed
# Gal(a1-6)Glc = target: Gal(a1-6)Glc
# Summary of the method: (§1)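 Negative Z-scores can be read as non-binding. The Z-score is calculated within each array and then averaged across arrays of one protein sequence at different concentrations or buffers and across linkers. Arrays, 3228 in all, were curated from the Consortium for Functional Glycomics database and kept only where the protein sequence was available.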
# Gal(b1-2)Gal = target: Gal(b1-2)Gal
# Summary of the method: as §1
# Gal(b1-3)Gal = target: Gal(b1-3)Gal
# Summary of the method: as §1
# Gal(b1-3)Gal(b1-4)GlcNAc = target: Gal(b1-3)Gal(b1-4)GlcNAc
# Summary of the method: as §1
# Gal(b1-3)GalNAc = target: Gal(b1-3)GalNAc
# Summary of the method: as §1
# [1] = target: Gal(b1-3)GalNAc(a1-3)[Fuc(a1-2)]Gal(b1-4)Glc
# Summary of the method: as §1
# [2] = target: Gal(b1-3)GalNAc(a1-3)[Fuc(a1-2)]Gal(b1-4)GlcNAc
# Summary of the method: as §1
# Gal(b1-3)GalNAc(b1-3)Gal = target: Gal(b1-3)GalNAc(b1-3)Gal
# Summary of the method: as §1
# [3] = target: Gal(b1-3)GalNAc(b1-3)Gal(a1-4)Gal(b1-4)Glc
# Summary of the method: as §1
# [4] = target: Gal(b1-3)GalNAc(b1-4)Gal(b1-4)Glc
# Summary of the method: as §1
# [5] = target: Gal(b1-3)GalNAc(b1-4)[Neu5Ac(a2-3)]Gal(b1-4)Glc
# Summary of the method: as §1
# Gal(b1-3)GlcNAc = target: Gal(b1-3)GlcNAc
# Summary of the method: as §1
# [6] = target: Gal(b1-3)GlcNAc(a1-3)Gal(b1-4)GlcNAc
# Summary of the method: as §1
# [7] = target: Gal(b1-3)GlcNAc(a1-6)Gal(b1-4)GlcNAc
# Summary of the method: as §1
# Gal(b1-3)GlcNAc(b1-2)Man = target: Gal(b1-3)GlcNAc(b1-2)Man
# Summary of the method: as §1
# [8] = target: Gal(b1-3)GlcNAc(b1-2)Man(a1-3)[Gal(b1-3)GlcNAc(b1-2)Man(a1-6)]Man(b1-4)GlcNAc(b1-4)GlcNAc
# Summary of the method: as §1
# [9] = target: Gal(b1-3)GlcNAc(b1-2)Man(a1-3)[Gal(b1-3)GlcNAc(b1-2)Man(a1-6)]Man(b1-4)GlcNAc(b1-4)[Fuc(a1-6)]GlcNAc
# Summary of the method: as §1
# [10] = target: Gal(b1-3)GlcNAc(b1-2)Man(a1-3)[GlcNAc(b1-4)][Gal(b1-3)GlcNAc(b1-2)Man(a1-6)]Man(b1-4)GlcNAc(b1-4)GlcNAc
# Summary of the method: as §1
# [11] = target: Gal(b1-3)GlcNAc(b1-2)[Gal(b1-3)GlcNAc(b1-6)]Man(a1-6)[Gal(b1-3)GlcNAc(b1-2)Man(a1-3)]Man(b1-4)GlcNAc(b1-4)GlcNAc
# Summary of the method: as §1
# [12] = target: Gal(b1-3)GlcNAc(b1-3)Gal(b1-3)GlcNAc
# Summary of the method: as §1
# [13] = target: Gal(b1-3)GlcNAc(b1-3)Gal(b1-4)Glc
# Summary of the method: as §1
# [14] = target: Gal(b1-3)GlcNAc(b1-3)Gal(b1-4)GlcNAc
# Summary of the method: as §1
# [15] = target: Gal(b1-3)GlcNAc(b1-3)Gal(b1-4)GlcNAc(b1-2)Man(a1-3)[Gal(b1-3)GlcNAc(b1-3)Gal(b1-4)GlcNAc(b1-2)Man(a1-6)]Man(b1-4)GlcNAc(b1-4)GlcNAc
# Summary of the method: as §1
# [16] = target: Gal(b1-3)GlcNAc(b1-3)Gal(b1-4)GlcNAc(b1-2)[Gal(b1-3)GlcNAc(b1-3)Gal(b1-4)GlcNAc(b1-6)]Man(a1-6)[Gal(b1-3)GlcNAc(b1-3)Gal(b1-4)GlcNAc(b1-2)Man(a1-3)]Man(b1-4)GlcNAc(b1-4)[Fuc(a1-6)]GlcNAc
# Summary of the method: as §1
# [17] = target: Gal(b1-3)GlcNAc(b1-3)Gal(b1-4)GlcNAc(b1-3)Gal(b1-4)GlcNAc(b1-2)[Gal(b1-3)GlcNAc(b1-3)Gal(b1-4)GlcNAc(b1-3)Gal(b1-4)GlcNAc(b1-6)]Man(a1-6)[Gal(b1-3)GlcNAc(b1-3)Gal(b1-4)GlcNAc(b1-3)Gal(b1-4)GlcNAc(b1-2)Man(a1-3)]Man(b1-4)GlcNAc(b1-4)[Fuc(a1-6)]GlcNAc
# Summary of the method: as §1
# [18] = target: Gal(b1-3)GlcNAc(b1-3)Gal(b1-4)GlcNAc(b1-6)[Gal(b1-3)GlcNAc(b1-3)]Gal(b1-4)Glc
# Summary of the method: as §1
# [19] = target: Gal(b1-3)GlcNAc(b1-3)Gal(b1-4)[Fuc(a1-3)]GlcNAc
# Summary of the method: as §1
# [20] = target: Gal(b1-3)GlcNAc(b1-3)Gal(b1-4)[Fuc(a1-3)]GlcNAc(b1-6)[Gal(b1-3)GlcNAc(b1-3)]Gal(b1-4)Glc
# Summary of the method: as §1
# [21] = target: Gal(b1-3)GlcNAc(b1-3)GalNAc
# Summary of the method: as §1
# [22] = target: Gal(b1-3)GlcNAc(b1-6)Gal(b1-4)GlcNAc
# Summary of the method: as §1
# [23] = target: Gal(b1-3)GlcNAc(b1-6)GalNAc
# Summary of the method: as §1
# [24] = target: Gal(b1-3)GlcNAc(b1-6)[Gal(b1-3)]GalNAc
# Summary of the method: as §1
# Gal(b1-3)GlcNAc6S = target: Gal(b1-3)GlcNAc6S
# Summary of the method: as §1
# [25] = target: Gal(b1-3)[Fuc(a1-4)]GlcNAc
# Summary of the method: as §1
# [26] = target: Gal(b1-3)[Fuc(a1-4)]GlcNAc(b1-2)Man
# Summary of the method: as §1
# [27] = target: Gal(b1-3)[Fuc(a1-4)]GlcNAc(b1-2)Man(a1-3)[Gal(b1-3)[Fuc(a1-4)]GlcNAc(b1-2)Man(a1-6)]Man(b1-4)GlcNAc(b1-4)[Fuc(a1-6)]GlcNAc
# Summary of the method: as §1
# [28] = target: Gal(b1-3)[Fuc(a1-4)]GlcNAc(b1-3)Gal(b1-3)[Fuc(a1-4)]GlcNAc
# Summary of the method: as §1
# [29] = target: Gal(b1-3)[Fuc(a1-4)]GlcNAc(b1-3)Gal(b1-4)[Fuc(a1-3)]GlcNAc
# Summary of the method: as §1
# [30] = target: Gal(b1-3)[Fuc(a1-4)]GlcNAc(b1-6)GalNAc
# Summary of the method: as §1
# [31] = target: Gal(b1-3)[GlcNAc(b1-6)]GalNAc
# Summary of the method: as §1
# [32] = target: Gal(b1-3)[Neu5Ac(a2-6)]GalNAc
# Summary of the method: as §1
# [33] = target: Gal(b1-3)[Neu5Ac(a2-6)]GlcNAc(b1-4)Gal(b1-4)Glc
# Summary of the method: as §1
# [34] = target: Gal(b1-3)[Neu5Ac(b2-6)]GalNAc
# Summary of the method: as §1
# Gal(b1-4)Gal = target: Gal(b1-4)Gal
# Summary of the method: as §1
# [35] = target: Gal(b1-4)GalNAc(a1-3)[Fuc(a1-2)]Gal(b1-4)GlcNAc
# Summary of the method: as §1
binder,measurement,setting,value
"CBP21 (Serratia marcescens), O83009 (protein) MNKTSRTLLSLGLLSAAMFGVSQQANAHGYVESPASRAYQCKLQLNTQCGSVQYEPQSVEGLKGFPQAGPADGHIASADKSTFFELDQQTPTRWNKLNLKTGPNSFTWKLTARHSTTSWRYFITKPNWDASQPLTRASFDLTPFCQFNDGGAIPAAQVTHQCNIPADRSGSHVILAVWDIADTANAFYQAIDVNLSK",glycan array binding signal (z-score),Gal(a1-6)Glc,-1.07
same,glycan array binding signal (z-score),Gal(b1-2)Gal,-1.48
same,glycan array binding signal (z-score),Gal(b1-3)Gal,0.337
same,glycan array binding signal (z-score),Gal(b1-3)Gal(b1-4)GlcNAc,0.038
same,glycan array binding signal (z-score),Gal(b1-3)GalNAc,0.091
same,glycan array binding signal (z-score),[1],-0.45
same,glycan array binding signal (z-score),[2],-0.828
same,glycan array binding signal (z-score),Gal(b1-3)GalNAc(b1-3)Gal,-0.7
same,glycan array binding signal (z-score),[3],0.964
same,glycan array binding signal (z-score),[4],1.25
same,glycan array binding signal (z-score),[5],1.15
same,glycan array binding signal (z-score),Gal(b1-3)GlcNAc,-0.226
same,glycan array binding signal (z-score),[6],0.425
same,glycan array binding signal (z-score),[7],0.999
same,glycan array binding signal (z-score),Gal(b1-3)GlcNAc(b1-2)Man,0.838
same,glycan array binding signal (z-score),[8],0.505
same,glycan array binding signal (z-score),[9],-0.019
same,glycan array binding signal (z-score),[10],1.17
same,glycan array binding signal (z-score),[11],0.911
same,glycan array binding signal (z-score),[12],-0.921
same,glycan array binding signal (z-score),[13],-1.55
same,glycan array binding signal (z-score),[14],0.895
same,glycan array binding signal (z-score),[15],0.699
same,glycan array binding signal (z-score),[16],3.27
same,glycan array binding signal (z-score),[17],-0.436
same,glycan array binding signal (z-score),[18],0.925
same,glycan array binding signal (z-score),[19],-1.29
same,glycan array binding signal (z-score),[20],0.446
same,glycan array binding signal (z-score),[21],-1.7
same,glycan array binding signal (z-score),[22],0.703
same,glycan array binding signal (z-score),[23],-0.485
same,glycan array binding signal (z-score),[24],0.586
same,glycan array binding signal (z-score),Gal(b1-3)GlcNAc6S,0.314
same,glycan array binding signal (z-score),[25],0.192
same,glycan array binding signal (z-score),[26],-1.07
same,glycan array binding signal (z-score),[27],-0.088
same,glycan array binding signal (z-score),[28],-0.433
same,glycan array binding signal (z-score),[29],2.27
same,glycan array binding signal (z-score),[30],-0.834
same,glycan array binding signal (z-score),[31],-0.112
same,glycan array binding signal (z-score),[32],0.111
same,glycan array binding signal (z-score),[33],-0.224
same,glycan array binding signal (z-score),[34],-0.85
same,glycan array binding signal (z-score),Gal(b1-4)Gal,-0.004
same,glycan array binding signal (z-score),[35],0.232

# Quoted from the listing (3 entries):
binder,measurement,setting,value
"CBP21 (Serratia marcescens), O83009 (protein) MNKTSRTLLSLGLLSAAMFGVSQQANAHGYVESPASRAYQCKLQLNTQCGSVQYEPQSVEGLKGFPQAGPADGHIASADKSTFFELDQQTPTRWNKLNLKTGPNSFTWKLTARHSTTSWRYFITKPNWDASQPLTRASFDLTPFCQFNDGGAIPAAQVTHQCNIPADRSGSHVILAVWDIADTANAFYQAIDVNLSK",glycan array binding signal (z-score),[8],0.505
same,glycan array binding signal (z-score),[9],-0.019
same,glycan array binding signal (z-score),[10],1.17
